Measurements from the supplement of paper PMC10849652.
Some of the results follow.

The chains behind the UniProt entries cited, without tags or fusion partners. Where a name states a change or a piece, a line headed by the entry shows the natural chain unless it says otherwise.
UniProt Q9H5H4: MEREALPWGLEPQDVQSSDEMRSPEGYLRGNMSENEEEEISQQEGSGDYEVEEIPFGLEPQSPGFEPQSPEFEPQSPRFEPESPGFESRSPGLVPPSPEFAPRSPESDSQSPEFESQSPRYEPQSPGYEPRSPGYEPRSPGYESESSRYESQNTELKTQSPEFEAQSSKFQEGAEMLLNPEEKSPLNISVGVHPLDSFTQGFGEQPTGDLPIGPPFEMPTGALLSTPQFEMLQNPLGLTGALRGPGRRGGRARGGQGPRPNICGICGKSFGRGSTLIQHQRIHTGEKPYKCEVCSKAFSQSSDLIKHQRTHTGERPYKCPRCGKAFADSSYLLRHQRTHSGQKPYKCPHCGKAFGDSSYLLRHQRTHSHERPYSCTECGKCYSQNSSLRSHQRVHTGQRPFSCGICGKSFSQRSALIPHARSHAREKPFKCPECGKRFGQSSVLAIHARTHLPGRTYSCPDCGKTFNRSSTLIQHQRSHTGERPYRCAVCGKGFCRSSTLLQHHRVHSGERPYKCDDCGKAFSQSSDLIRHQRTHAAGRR

biological target: ZNF768 (UniProt Q9H5H4); assay: log2 fold change, soluble protein after heating vs DMSO (PISA); higher = thermal stabilisation; K562 cells, 10 uM, 30 min; active = over 0.2 and 3.5 SD of the protein, either way, in both replicates (recomputed)
Procedure, shortened: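 K562 cells at 2×10^6 cells/mL were treated with 10 μM compound for 30 min. Aliquots were heated for 3 min across 48°C-58°C, pooled, and extracted in PBS with 0.5% NP-40 at 4°C; soluble protein was the supernatant after 21,000xg for 90 min. Soluble protein was quantified by TMTpro 16plex LC-MS/MS with channel sums equalised, and reported as log2 fold change in thermal stability against DMSO controls, with values from duplicates.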

log2 fold change, inactive:
CCCc1cc(C)[nH]c(=O)c1CNC(=O)c1cc(-c2ccnc(N3CCN(C)CC3)c2)cc2c1cnn2C(C)C 0.163
Cc1cccc(-c2[nH]c(C(C)(C)C)nc2-c2ccc3nccnc3c2)n1 -0.076
COc1cc2ncnc(Nc3ccc(F)c(Cl)c3)c2cc1OCCCN1CCOCC1 [gefitinib] -0.096
Cc1cc(Nc2cc(CN3CCOCC3)c3nc(C)c(Cc4ccc(Cl)cc4F)n3n2)n[nH]1 [gandotinib] 0.112
NC1(c2ccc(-c3nc4ccn5c(=O)[nH]nc5c4cc3-c3ccccc3)cc2)CCC1 0.171
O=C1NC(=O)/C(=C\c2ccc3nccnc3c2)S1 -0.031
CCN(CCCOc1ccc2c(Nc3cc(CC(=O)Nc4cccc(F)c4)[nH]n3)ncnc2c1)CCOP(=O)(O)O [barasertib] -0.111
Cc1ncc(-c2ccnc(Nc3ccc(S(C)(=O)=O)cc3)n2)n1C(C)C -0.076
Cc1cccc(CC(=O)N2CCc3c2ccc(-c2cn(C)c4ncnc(N)c24)c3F)n1 -0.031
COc1cccc2cc(-c3nc([C@H]4CC[C@H](C(=O)O)CC4)n4ncnc(N)c34)[nH]c12 -0.133
Cc1ccc(NC(=O)c2ccc(CN3CC[C@H](N(C)C)C3)c(C(F)(F)F)c2)cc1Nc1nccc(-c2cncnc2)n1 [bafetinib] 0.084
CCn1cc(-c2ccnc3[nH]c(-c4cccc(CN(C)C)c4)cc23)c(-c2ccc(NC(=O)N(C)C)cc2)n1 0.183
CC(C)N(C[C@H]1O[C@@H](n2cnc3c(N)ncnc32)[C@H](O)[C@@H]1O)[C@H]1C[C@@H](CCc2nc3cc(C(C)(C)C)ccc3[nH]2)C1 [pinometostat] 0.192
CN1CCC(CNc2ccc3ncc(-c4cccc(OC(F)(F)F)c4)n3n2)CC1 0.2
C[C@@H](N)c1ccc(C(=O)Nc2ccnc3[nH]ccc23)cc1 0.346
CC[C@H](C)n1cc(C)c2c(C(=O)NCc3c(C)cc(C)[nH]c3=O)cc(-c3ccc(N4CCNCC4)nc3)cc21 0.011
COc1ccc(Cn2ccc3ccc(C(=O)NO)cc32)cc1 -0.16
CS(=O)(=O)N1CCN(Cc2cc3nc(-c4cccc5[nH]ncc45)nc(N4CCOCC4)c3s2)CC1 [pictilisib] -0.014
COc1cc(Nc2ncc3c(n2)-c2ccc(Cl)cc2C(c2c(F)cccc2OC)=NC3)ccc1C(=O)O [alisertib] -0.165
Cn1cc(-c2ccc3c(c2)CCN3C(=O)Cc2cccc(C(F)(F)F)c2)c2c(N)ncnc21 -0.419
O=C(CCCCCCC(=O)Nc1ccccc1)NO [vorinostat] -0.247
C[C@@H](Oc1cc(-c2cnn(C3CCNCC3)c2)cnc1N)c1c(Cl)ccc(F)c1Cl [crizotinib] 0.03
Cc1ccc(-n2nc(C(C)(C)C)cc2NC(=O)Nc2ccc(OCCN3CCOCC3)c3ccccc23)cc1 [doramapimod] 0.107
Cc1cn(-c2cc(NC(=O)c3ccc(C)c(Nc4nccc(-c5cccnc5)n4)c3)cc(C(F)(F)F)c2)cn1 [nilotinib] -0.024
O=C(O)c1ccc2c(c1)nc(Nc1cccc(Cl)c1)c1ccncc12 [silmitasertib] 0.123
C=CC(=O)N1CCC[C@@H](n2nc(-c3ccc(Oc4ccccc4)cc3)c3c(N)ncnc32)C1 [ibrutinib] -0.004
O=C(Nc1nc2ccccc2n1CCN1CCOCC1)c1cccc([N+](=O)[O-])c1 [IRAK-1-4 Inhibitor I] -0.063
Cc1nc(Nc2n[nH]c3c2CN(C(=O)N[C@H](CN(C)C)c2ccccc2)C3(C)C)c2sccc2n1 0
CO[C@H]1C[C@@H]2CC[C@@H](C)[C@@](O)(O2)C(=O)C(=O)N2CCCC[C@H]2C(=O)O[C@H]([C@H](C)C[C@@H]2CC[C@H](n3cnnn3)[C@H](OC)C2)CC(=O)[C@H](C)/C=C(\C)[C@@H](O)[C@@H](OC)C(=O)[C@H](C)C[C@H](C)/C=C/C=C/C=C/1C [zotarolimus] 0.029
FC(F)(F)c1ccc(/C=C/c2nc(COc3ccc(CCCCn4ccnn4)cc3)co2)cc1 [mubritinib] -0.115

No new results follow: 2 of the compounds above.
log2 fold change, inactive:
Cc1ncc(-c2ccnc(Nc3ccc(S(C)(=O)=O)cc3)n2)n1C(C)C -0.076
Cc1cccc(CC(=O)N2CCc3c2ccc(-c2cn(C)c4ncnc(N)c24)c3F)n1 -0.031
